# In the supplement of paper PMC9454738:
# Several values for one entry are separate records, joined by “and”; a condition that tells them apart may be missing. Equal values may be shown once. Where a name gives a salt, the structure may show the parent alone. ± gives the standard deviation of the averaged measurements. The list shows a part of the results. Repeats in this data set agree poorly, so a single value says little.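 Assays used MDA-MB-231 triple-negative breast cancer cells and their brain-metastatic line MDA-MB-231BRM, stably carrying empty vector, full-length GLI1 or truncated tGLI1. After 48 h, viability was read with CellTiter-Blue and normalized to 1% DMSO vehicle. tGLI1 selectivity meant viability fell 20% more in tGLI1 cells than in vector and GLI1 cells.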
# Tests used:
# Assay in all cases: cell viability relative to vehicle (DMSO) control (fraction); higher = more viable cells (less growth inhibition)
# Conditions in all cases: treatment time 48 h
# [1] = system: MDA-MB-231 GLI1
# [2] = system: MDA-MB-231 Vector
# [3] = system: MDA-MB-231 tGLI1
# [4] = system: MDA-MB-231BRM GLI1
# [5] = system: MDA-MB-231BRM Vector
# [6] = system: MDA-MB-231BRM tGLI1
Compound,cell viability ([1]; 0.05 µM),cell viability ([1]; 0.5 µM),cell viability ([1]; 5 µM),cell viability ([2]; 0.05 µM),cell viability ([2]; 0.5 µM),cell viability ([2]; 5 µM),cell viability ([3]; 0.05 µM),cell viability ([3]; 0.5 µM),cell viability ([3]; 5 µM),cell viability ([4]; 0.05 µM),cell viability ([4]; 0.5 µM),cell viability ([4]; 5 µM),cell viability ([5]; 0.05 µM),cell viability ([5]; 0.5 µM),cell viability ([5]; 5 µM),cell viability ([6]; 0.05 µM),cell viability ([6]; 0.5 µM),cell viability ([6]; 5 µM)
N#C/C(=C\c1ccc(O)c(O)c1)C(=O)NCc1ccccc1 [AG-490 (Tyrphostin B42)],1.08,1.42,1.02,1.2,1.17,1.21,0.952,1.32,0.569,1.01,0.944,0.885,0.893,0.917,0.934,1.01,0.936,0.934
Nc1nc(Cl)nc2c1ncn2[C@@H]1O[C@H](CO)[C@@H](O)[C@@H]1F [Clofarabine],1.07,0.575,0.43,0.946,0.357,0.264,0.962,0.532,0.445,1.01,0.794,0.669,0.914,0.968,0.815,1.05,0.908,0.803
O=c1cc(CN2CCOCC2)occ1OCCCCCSc1ccnc2cc(C(F)(F)F)ccc12,2.26,2.92,2.34,1.43,1.43,1.49,1.46,1.5,1.6,0.826,0.799,0.656,0.872,0.669,0.708,1.18,0.705,1.07
C[C@@H](NCCCc1cccc(C(F)(F)F)c1)c1cccc2ccccc12 [AMG-073 HCl (Cinacalcet hydrochloride)],1.25,1,0.369,0.909,0.939,0.00244,1.12,0.938,0.233,1.06,1.05,0.868,1.02,1.03,0.961,1.03,1.05,0.998
CNC(=O)c1ccccc1Nc1nc(Nc2ccc(N3CCOCC3)cc2OC)ncc1Cl,1.27,0.836,0.233,1.13,0.889,0.274,1.32,0.785,0.199,0.993,0.871,0.563,0.951,0.885,0.537,0.938,0.908,0.536
Cc1cc([C@@H](C)Nc2ccccc2C(=O)O)c2nc(N3CCOCC3)cc(=O)n2c1,1.24,1.07,1.28,1.94,1.18,1.15,1.22,1.17,1.05,1.18,1.12,0.919,1.14,1.05,0.873,0.492,0.736,0.936
C[C@@H]1COC(Nc2ccc3ncnc(Nc4ccc(OCc5nccs5)c(Cl)c4)c3c2)=N1 [Varlitinib],1.2,1.12,0.845,1.34,1.28,1.02,1.47,1.13,0.869,0.976,0.943,0.804,1.02,0.963,0.843,1.09,1.04,0.874
c1cc(-c2cnn3cc(-c4ccc(OCCN5CCCCC5)cc4)cnc23)ccn1 [Dorsomorphin (Compound C)],2.4,2.93,1.21,1.5,1.29,0.629,1.39,1.5,0.765,0.827,0.723,0.629,0.912,0.738,0.691,1.2,0.549,1
Nc1cccc(S(=O)(=O)N2CCCN(S(=O)(=O)c3ccc4c(c3)OCCO4)CC2)c1,2.13,2.96,1.86,1.29,1.34,1.28,1.46,1.49,1.33,0.776,0.749,0.725,0.855,0.759,0.805,1.13,1.11,1.16
O=C1Nc2ccccc2/C1=C1/Nc2ccccc2C1=O [Indirubin],0.855 ± 0.13,0.814 ± 0.2,1.11 ± 0.23,0.967 ± 0.45,0.886 ± 0.24,0.848 ± 0.31,0.874 ± 0.032,0.776 ± 0.061,0.886 ± 0.5,1.06 ± 0.044,1.03 ± 0.089,0.977 ± 0.065,1.05 ± 0.055,1.04 ± 0.14,1.02 ± 0.014,0.997 ± 0.011,1.09 ± 0.071,0.767 ± 0.33
CCc1c2c(nc3ccc(OC(=O)N4CCC(N5CCCCC5)CC4)cc13)-c1cc3c(c(=O)n1C2)COC(=O)[C@]3(O)CC [Irinotecan],1.09,1.11,0.86,1.27,1.18,0.81,1.11,1.05,0.672,1.03,0.996,0.932,1.08,1.03,0.89,1.04,0.993,1.01
O=C(/C=C/c1ccc2ccccc2n1)c1ccncc1,1.46,1.5,-0.0565,1.49,1.31,0.0391,1.26,1.36,-0.0327,1.12,0.996,0.806,1.22,1.12,0.866,0.968,1.01,0.809
OCCn1cc(-c2ccc3c(c2)CC/C3=N\O)c(-c2ccncc2)n1,1.52,1.48,1.2,1.41,1.15,0.698,1.25,1.35,0.882,0.974,1.1,0.979,0.97,1.04,1.04,1.03,0.974,0.989
Cc1cnc(-c2cnc(NCCNc3ccc(C#N)cn3)nc2-c2ccc(Cl)cc2Cl)[nH]1,1.31 and 1.04,1.44 and 1.41,0.703 and 0.973,1.9 and 1.09,1.26 and 1.25,1.24 and 1.29,0.478 and 1.08,1.35 and 1.32,1.4 and 0.93,1.15 and 0.903,1.07 and 0.989,0.917 and 1.01,0.562 and 1.01,1.02 and 1.03,0.559 and 1.02,0.971 and 1.01,1.15 and 0.981,0.974 and 1.09
Oc1c2ccccc2c2c3c(cccc13)N=N2,1.39,1.56,1.51,2.01,1.36,1.27,1.23,1.32,1.21,1.14,1.2,0.845,0.781,1.12,0.945,1,1.15,0.912
CCN(CC)CCNC(=O)c1c(C)[nH]c(/C=C2\C(=O)Nc3ccc(F)cc32)c1C [Sunitinib Malate],1.31,1.2,-0.0645,0.702,1.01,0.0615,1,1.08,0.179,1.15,0.848,0.96,0.882,0.806,1.06,0.957,0.822,0.879
CCc1cccc(CC)c1NC(=O)N1Cc2[nH]nc(NC(=O)c3ccc(N4CCN(C)CC4)cc3)c2C1,1.36,1.1,0.148,1.82,1.03,0.697,1.3,1.05,0.598,1.13,1.08,0.925,1.13,0.977,0.904,1.01,1.08,0.883
CN1CCN(c2ccc(C(=O)Nc3n[nH]c4ccc(Cc5cc(F)cc(F)c5)cc34)c(NC3CCOCC3)c2)CC1 [Entrectinib (RXDX-101)],2.25,3.1,0.0684,1.24,1.26,-0.0838,1.4,1.33,-0.137,0.811,0.714,0.621,0.914,0.734,0.653,1.16,1.07,0.81
CC[C@@]1(O)C(=O)OCc2c1cc1n(c2=O)Cc2cc3c(CN(C)C)c(O)ccc3nc2-1 [Topotecan HCl],0.861,0.408,-0.206,0.534,0.212,0.264,0.707,0.365,-0.316,1.18,1.03,0.697,1.19,1.05,0.758,1.24,1.08,0.793
Cc1cc(N2CCOCC2)cc2[nH]c(-c3c(NC[C@@H](O)c4cccc(Cl)c4)cc[nH]c3=O)nc12,1.01,1.44,0.225,0.964,0.786,0.201,0.767,0.952,0.196,0.887,0.856,0.793,0.879,0.511,0.773,0.905,0.833,0.664
C[C@@H](N)[C@H]1CC[C@H](C(=O)Nc2ccncc2)CC1,1.48,1.83,1.75,1.54,1.33,1.1,1.23,1.49,1.35,0.916,0.946,1.08,0.885,0.989,1.09,0.915,0.996,1.11
O=C(Cc1ccc(-c2ccc(OCCN3CCOCC3)cc2)cn1)NCc1ccccc1,0.342,0.077,0.0548,0.398,0.107,0.114,0.367,0.0587,0.0692,1.22,1.21,1.09,1.2,1.23,0.998,1.19,1.16,0.652
Cc1csc(-c2nnc(Nc3ccc(Oc4ncccc4-c4ccnc(N)n4)cc3)c3ccccc23)c1,0.87,0.88,0.416,0.95,1.02,0.344,1.03,0.9,0.414,0.987,0.889,0.435,0.915,0.872,0.45,1.05,0.915,0.412
CC(C)(C)NC(=O)[C@H]1CC[C@H]2[C@@H]3CC[C@H]4NC(=O)C=C[C@]4(C)[C@H]3CC[C@]12C [Finasteride],1.22,1.01,1.16,1.49,1.36,1.11,0.841,1.1,1.12,1.03,1.01,0.971,1.05,0.992,0.991,1.04,1.07,1.04
CNC(=O)c1cc(Oc2ccc3nc(N[C@@H]4CCCC[C@H]4O)sc3c2)ccn1,1.25,1.96,1.35,0.747,0.617,0.609,0.67,0.774,0.895,0.5,0.495,0.37,0.555,0.434,0.394,0.64,0.665,0.591
CC(C)n1nc(-c2ccc3oc(N)nc3c2)c2c(N)ncnc21,0.45,0.335,0.14,0.494,0.354,0.104,0.449,0.33,0.171,0.967,0.88,0.828,0.97,0.877,0.337,0.855,0.771,0.722
COc1ccc(C(=O)Nc2sc3c(c2C(N)=O)CCCC3)cc1OC,1.21,1.85,1.2,0.754,0.712,0.597,0.69,0.738,0.726,0.508,0.441,0.375,0.516,0.432,0.378,0.685,0.594,0.654

# Reprinted at random: two compounds from above, in no set order.
Compound,cell viability ([1]; 0.05 µM),cell viability ([1]; 0.5 µM),cell viability ([1]; 5 µM),cell viability ([2]; 0.05 µM),cell viability ([2]; 0.5 µM),cell viability ([2]; 5 µM),cell viability ([3]; 0.05 µM),cell viability ([3]; 0.5 µM),cell viability ([3]; 5 µM),cell viability ([4]; 0.05 µM),cell viability ([4]; 0.5 µM),cell viability ([4]; 5 µM),cell viability ([5]; 0.05 µM),cell viability ([5]; 0.5 µM),cell viability ([5]; 5 µM),cell viability ([6]; 0.05 µM),cell viability ([6]; 0.5 µM),cell viability ([6]; 5 µM)
Cc1cnc(-c2cnc(NCCNc3ccc(C#N)cn3)nc2-c2ccc(Cl)cc2Cl)[nH]1,1.31 and 1.04,1.44 and 1.41,0.703 and 0.973,1.9 and 1.09,1.26 and 1.25,1.24 and 1.29,0.478 and 1.08,1.35 and 1.32,1.4 and 0.93,1.15 and 0.903,1.07 and 0.989,0.917 and 1.01,0.562 and 1.01,1.02 and 1.03,0.559 and 1.02,0.971 and 1.01,1.15 and 0.981,0.974 and 1.09
C[C@@H](NCCCc1cccc(C(F)(F)F)c1)c1cccc2ccccc12 [AMG-073 HCl (Cinacalcet hydrochloride)],1.25,1,0.369,0.909,0.939,0.00244,1.12,0.938,0.233,1.06,1.05,0.868,1.02,1.03,0.961,1.03,1.05,0.998
